Results are given in words; binding and its absence hold for the method and conditions named. In cells and extracts the contact can be indirect. Some entries that bind do so weakly or less than the wild type. Tags and fused reporters may be left off the sequences shown.
T1: GST-tagged GGA3 (Golgi-localized γ-ear containing Arf-binding protein 3) (UniProt Q9NZ52)
T1 sequence: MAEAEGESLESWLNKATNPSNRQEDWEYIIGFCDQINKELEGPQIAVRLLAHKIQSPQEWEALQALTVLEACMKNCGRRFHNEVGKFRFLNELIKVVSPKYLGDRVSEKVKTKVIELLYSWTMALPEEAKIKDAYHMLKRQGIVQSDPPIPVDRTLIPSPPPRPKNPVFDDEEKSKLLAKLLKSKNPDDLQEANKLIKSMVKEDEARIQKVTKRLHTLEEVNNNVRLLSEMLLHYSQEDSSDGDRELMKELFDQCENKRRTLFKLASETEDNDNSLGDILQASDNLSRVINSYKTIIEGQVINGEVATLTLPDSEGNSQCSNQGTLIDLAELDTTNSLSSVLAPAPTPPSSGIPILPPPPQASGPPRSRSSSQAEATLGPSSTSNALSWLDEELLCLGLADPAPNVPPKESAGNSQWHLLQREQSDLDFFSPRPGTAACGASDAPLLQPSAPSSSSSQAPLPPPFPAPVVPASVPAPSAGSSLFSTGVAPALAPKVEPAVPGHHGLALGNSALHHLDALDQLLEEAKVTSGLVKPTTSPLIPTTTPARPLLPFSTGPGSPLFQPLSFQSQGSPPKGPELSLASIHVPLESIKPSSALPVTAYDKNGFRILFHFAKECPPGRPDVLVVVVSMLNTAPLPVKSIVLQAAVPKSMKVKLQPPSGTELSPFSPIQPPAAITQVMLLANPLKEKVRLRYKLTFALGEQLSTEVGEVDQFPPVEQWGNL

The chains behind the UniProt entries cited, without tags or fusion partners.
UniProt P84078: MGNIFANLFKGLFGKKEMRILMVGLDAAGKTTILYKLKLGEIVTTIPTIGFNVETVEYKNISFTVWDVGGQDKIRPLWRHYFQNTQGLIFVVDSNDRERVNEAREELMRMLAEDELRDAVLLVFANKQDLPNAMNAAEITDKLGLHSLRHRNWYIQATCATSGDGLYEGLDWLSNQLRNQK

B1: Arl15 (endogenous, mouse embryonic fibroblasts) (protein, UniProt Q8BGR6 1-204)
chain: MSDLRITEAFLYMDYLCFRALCCKGPPPARPEYDLVCIGLTGSGKTSLLSELCSESPENVVSTTGFSIKAVPFQNAVLNVKELGGADNIRKYWSRYYQGSQGVIFVLDSASSEDDLETARNELHSALQHPQLCTLPFLILANHQDKPAARSVQEIKKYFELEPLARGKRWILQPCSLDDVDTLKDSFSQLINLLEEKDHEAVRM

Molecular target: T1, GST-tagged GGA3 (Golgi-localized γ-ear containing Arf-binding protein 3)
Assay: pull-down

| Molecule | binding |
| --- | --- |
| Arf1 (endogenous, mouse embryonic fibroblasts) (from UniProt P84078 1-181) | binds |
| B1 | binds |
